Laboratory results published in patent US4639333 (dated 1987).

Experiment: general procedure: peptide synthesis; trypsin (enzymatic transpeptidation with amino acid tert-butyl esters)
Settings: late stage modification step

With Example 2 bovine insulin B30-Ala-O(tBu) the “crude HPLC purity” value was 67%.
